According to patent US10689622B2, “Culture medium for proliferating stem cell, which contains sulfated compound” (AJINOMOTO CO., INC., priority 2012, dated 2020):
Some results were stated once for a whole list of compounds, not compound by compound.

Chains of the proteins cited; added tags and fusions are not shown. Residues count along the entry.
UniProt P09038, 143-288: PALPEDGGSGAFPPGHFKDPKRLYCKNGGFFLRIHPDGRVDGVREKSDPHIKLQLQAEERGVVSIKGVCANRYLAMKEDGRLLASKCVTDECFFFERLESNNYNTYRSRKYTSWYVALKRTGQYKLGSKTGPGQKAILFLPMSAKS

Molecular target: T1, bFGF (Homo sapiens, UniProt P09038)
T1 construct: purchased Lonza (via TAKARA BIO INC.) Ser. No. 00/190,632
Assay: Evaluation of bFGF stabilization in Lonza serum-free medium (ELISA)
Format: biochemical
Details: 37° C. for 7 days, addition at any concentration
Method: A test compound was dissolved in phosphate buffered saline, and diluted 10-fold with a serum-free medium to adjust to the concentrations shown in Table 4 (test sample). The test sample was left standing in a tightly sealed Falcon tube at 37° C. for 7 days (Tables 5 to 8-2) or 3 days (Table 8-3), and the bFGF concentration was quantified by ELISA measurement. A phosphate buffered saline without a test compound was diluted 10-fold with a serum-free medium, and left standing at 37° C. or 4° C. for 7 days or 3 days, and used as a control.
A commercially available measurement kit (human bFGF ELISA kit, ELH-bFGF-001, Ray Biotech) was used for quantification of bFGF in the medium. The measurement procedures followed the protocol attached to the kit. The bFGF concentration of the serum-free medium was calculated from the analytical curve (conversion formula) drawn from the absorbance of an analytical curve standard solution. […]
A test compound was dissolved in phosphate buffered saline, and diluted 10-fold with a serum-free medium to adjust to the concentrations shown in Table 13 (test sample). The test sample was left standing in a tightly sealed Falcon tube at 37° C. for 7 days, and the bFGF concentration was quantified by ELISA measurement. […]
A commercially available measurement kit (human bFGF ELISA kit, ELH-bFGF-001, Ray Biotech) was used for quantification of bFGF in the medium. […]

| Compound | bFGF concentration of the medium relative to that of the 4° C. control |
| --- | --- |
| OC[C@@H](O)[C@@H](O)[C@H](O)[C@H](O)CO [mannitol, reference compound] | less than 10% |
| OC[C@H]1O[C@@](CO)(O[C@H]2O[C@H](CO)[C@@H](O)[C@H](O)[C@H]2O)[C@@H](O)[C@@H]1O [sucrose, reference compound] | less than 10% |
